The data set in a line: Continuous test plant: membrane contactor CO2 absorption from exhaust and solvent regeneration in stripper. Conditions: for CO2 capture rate: FIG. 10.
[1] abbreviates: 210 kPa stripper pressure, 120° C. stripper temperature, 3.75 kg/min liquid, 9 mol % CO2, 25 SCFM.

The structures appear in SMILES notation. Where two headings read alike, the source gives them in different places.

Turning to `O=C(O)[C@@H]1CCCN1` [3 m PRO, Proline], the “Capture rate (%)” value came out at 7%.
As to `NCCS(=O)(=O)O` [3 m TAU, taurine], the CO2 capture rate runs as follows: (170 kPa regeneration pressure, listed as 3 m potassium taurinate) around 55%; (250 kPa regeneration pressure, listed as 3 m potassium taurinate) 35%. Further, the “Capture rate (%)” value (210 kPa stripper pressure, 120° C. stripper temperature, 3.75 kg/min liquid, 9 mol % CO2, 25 SCFM, listed as 3 m taurine) came to 45%.
On to `O=C(O)[C@@H]1CCCN1` [5 m PRO, Proline], for which the “Capture rate (%)” value is 6%.
For the compound `CNCC(=O)O` [5 m SAR, Sarcosine], under setting [1], the “Capture rate (%)” value was 21%.
`NCCS(=O)(=O)O` [5 m TAU, taurine]: the CO2 capture rate is recorded as around 70% (170 kPa regeneration pressure, listed as 5 m taurine) and around 50% (250 kPa regeneration pressure, listed as 5 m taurine). In addition, the “Capture rate (%)” value (210 kPa stripper pressure, 120° C. stripper temperature, 3.75 kg/min liquid, 9 mol % CO2, 25 SCFM, listed as 5 m taurine) is listed as 57%.
As for `NCCC(=O)O` [5 m b-ALA, Beta-alanine], under setting [1], the “Capture rate (%)” value is 15%.

The values are drawn from US20250196055A1, “PROCESS FOR CAPTURING CO2 FROM A MOBILE SOURCE USING AN AMINO ACID SOLVENT” (SAUDI ARABIAN OIL COMPANY, priority 2021, published 2025).
